# From paper PMC7862700
# The list shows a part of the results. Construct or isoform of the protein are uncertain.
# Molecular target: T1, ETS1 (UniProt P14921)
# T1 sequence: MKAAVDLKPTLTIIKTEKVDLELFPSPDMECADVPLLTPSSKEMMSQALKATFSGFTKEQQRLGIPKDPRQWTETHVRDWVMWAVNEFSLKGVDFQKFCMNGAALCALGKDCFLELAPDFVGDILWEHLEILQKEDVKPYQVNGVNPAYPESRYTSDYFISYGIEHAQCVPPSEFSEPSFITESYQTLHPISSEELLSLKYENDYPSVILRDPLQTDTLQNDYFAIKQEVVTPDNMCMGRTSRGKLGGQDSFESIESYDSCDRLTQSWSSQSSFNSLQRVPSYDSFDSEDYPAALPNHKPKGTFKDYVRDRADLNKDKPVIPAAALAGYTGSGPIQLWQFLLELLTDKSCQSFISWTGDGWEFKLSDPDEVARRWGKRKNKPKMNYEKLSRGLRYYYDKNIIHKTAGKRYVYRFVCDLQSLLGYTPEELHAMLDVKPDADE
# Assay: DAPPL (digital affinity profiling via proximity ligation, sequencing)
# Conditions: 10 mM Tris-HCl pH 7.5, 50 mM NaCl, 1 mM DTT, 4% glycerol, room temperature, 30 min; GST-TFs on glutathione beads, 16-mer random dsDNA library, 0.1% …; high values mean tight binding; double strand, one strand shown; scale: fold enrichment (6-mer frequency, TF over GST control)
row,Sequence,binding signal
1,ATCGAC,1.23
2,AGAACA,0.998
3,TTCATG,1.32
4,CTACAA,1.11
5,TGTATA,1.1
6,TATGTT,1.24
7,TCCCGT,1.3
8,GGATGC,1.19
9,GCACTA,1.12
10,AAAGAT,1.18
11,TGCGGA,1.28
12,TTGCAG,1.17
13,CTTCAC,1.43
14,TGCGTT,1.1
15,TACATA,1.25
16,GTTATT,1.25
17,ATGGCG,1.04
18,AATCAG,1.17
19,TTTTTC,1.18
20,CTATCA,1.02

# Fetched one by one from above (two):
row,Sequence,binding signal
6,TATGTT,1.24
20,CTATCA,1.02

# Going on with the list.

row,Sequence,binding signal
1,ACACTC,1.12
2,TTTAAC,1.18
3,CATTAC,1.08
4,AACCCC,1.23
5,CCTGAA,1.36
6,TATCTG,1.22
7,GTAATA,1.21
8,AATCCA,1.08
9,GGCTAC,1.26
10,CTATGC,1.48
11,TACGTC,1.24
12,ACATGT,1.06
13,TATGAG,0.966
14,ACAAAC,1.21
15,AACCCT,1.36
16,ATTTTA,1.37
17,ACATTT,1.39
18,AAAATG,1.24
19,TTCGCT,1.32
20,AGCATT,0.943
